# Test results from the supplement of paper PMC12889115.
# The other results are listed elsewhere or left out. These are raw signals, not scaled to a control.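 In the initial screen, polymyxin B was used at a concentration that permeabilizes Salmonella's outer membrane but not its inner membrane. Maximum growth was set by DMSO wells with or without polymyxin B. Since plates varied, data were ranked per plate, and compounds giving the lowest OD600 advanced as hits.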
# System: Salmonella enterica serovar Typhimurium SL1344
# Assay: bacterial growth OD600 after 18 h with compound and polymyxin B; higher = more bacterial growth (less inhibition)
# Conditions: 50 µM, Mueller-Hinton broth
Compound,bacterial growth OD600 (polymyxin B 0.75 µg/mL),bacterial growth OD600 (polymyxin B 1 µg/mL)
CCN(Cc1nc2ccccc2nc1C)CC1CCCN(CCc2cccc(OC)c2)C1 (configuration not stated),0.969,–
Cn1c(C2CCC2)nc2cc(C(=O)NC3Cc4ccccc4C3)cc(NC(=O)C3CCCO3)c21 (configuration not stated),0.851,–
CSCC(=O)N1CCC2(CCCN(Cc3ccc(F)cc3)C2=O)C1 (configuration not stated),–,0.959
CN(CCc1ccccc1)C1CCCN(Cc2ccc(O)c(Cl)c2)C1 (configuration not stated),–,0.893
CCN(Cc1ccccc1)C(=O)c1ccc(OC2CCN(C(=O)C3CC3)CC2)cc1,–,0.895
CC(C)C(=O)N1CCCC(N2CCN(c3cccc(C(F)(F)F)c3)CC2)C1 (configuration not stated),–,0.926
CCn1nc(C)c(CN2CCC(C(Cc3ccccc3Cl)N(C)C(=O)c3ccco3)CC2)c1C (configuration not stated),0.838,–
Cc1ccc(CCNC(=O)C2CCC(=O)N(CC3CCCCC3)C2)s1 (configuration not stated),–,0.83
Cc1oc(-c2cc(F)ccc2F)nc1CN1CCN(c2ccccc2)CC1C (configuration not stated),–,0.824
O=C(C1CC12CCCCC2)N1CCc2onc(-c3ccccc3F)c2C1 (configuration not stated),-0.001,–
COc1cccc(N2CCN(Cc3nc(-c4cc(F)cc(F)c4)oc3C)CC2=O)c1,–,0.727
O=C(CCc1ccco1)NC1CC(=O)N(CCc2ccccc2)C1 (configuration not stated),–,1.13
COc1ccc(OC)c(-c2cc(Cl)c3c(c2)CC(CNC(=O)/C=C/c2cccnc2)O3)c1 (configuration not stated),0.013,–
Cc1ccccc1C(=O)N1CCC(C2(c3ccccn3)NC(=O)N(CCc3cccs3)C2=O)CC1 (configuration not stated),0.813,–
CCOc1ccc(CN2CCN(Cc3ccc(OC)cc3F)C(CCO)C2)cc1CO (configuration not stated),–,1.08
CC(=O)c1cccc(CN2CCCC(Nc3ccc(F)c(F)c3)C2)c1 (configuration not stated),–,0.657

# Complete entries as entered above:
# Cc1oc(-c2cc(F)ccc2F)nc1CN1CCN(c2ccccc2)CC1C (configuration not stated) as listed: bacterial growth OD600 (polymyxin B 1 µg/mL): 0.824
# O=C(CCc1ccco1)NC1CC(=O)N(CCc2ccccc2)C1 (configuration not stated) as listed: bacterial growth OD600 (polymyxin B 1 µg/mL): 1.13

# (cont.)

Compound,bacterial growth OD600 (polymyxin B 0.75 µg/mL),bacterial growth OD600 (polymyxin B 1 µg/mL)
O=C1CC(CC(=O)N2CCCCC2c2nccs2)(c2ccccc2)C(=O)N1CCc1ccccn1 (configuration not stated),0.785,–
Cc1nc(CN2CCN(C(=O)Cn3nnnc3CN3CCC(C)CC3)CC2)cs1,–,0.969
COc1ccc(-c2cn3c(C(=O)NCC(F)(F)F)csc3n2)cc1F,0.003,–
COc1ncccc1C(=O)NC1CCCc2nc(-c3ccccc3)ncc21 (configuration not stated),–,0.968
COc1ccccc1Oc1ncccc1CNC(=O)c1ccc[n+]([O-])c1,–,1.05
CSCC(=O)N1CCCC(CCc2ccccc2)C1 (configuration not stated),0.568,–
O=S(=O)(c1ccc(OC(F)(F)F)cc1)N1CCC(n2c(C3CCCO3)nc3cccnc32)CC1 (configuration not stated),0.983,–
CCNC(=O)c1cnn(-c2nccc(-c3cc(C)sc3C)n2)c1C1CC1,0.858,–
COC(=O)[C@@H]1CCCN1C(=O)c1cn(Cc2ccccc2C(F)(F)F)nn1,–,0.8
Cc1nc[nH]c1CN1CCCC(CCc2ccc(F)c(F)c2)C1 (configuration not stated),0.742,–
COc1ccc(CCN(C)C(=O)C2CCN(c3nc(C)c4cc(C)ccc4n3)CC2)cc1OC,0.778,–
Cc1nc2ccc(C(=O)N3CCC(C(Cc4ccccc4)N(C)Cc4cccnc4)CC3)cc2nc1C (configuration not stated),0.763,–
CN(CCC1CCCCO1)C(=O)c1cc(Cn2ccc3ccccc32)[nH]n1 (configuration not stated),0.784,–
CN(C)c1ncc2c(n1)CCCC2NCc1ccc(C(F)(F)F)cc1 (configuration not stated),0.769,–
CCCc1cc(CNC(=O)c2ccc(NC3CCC3)nc2)on1,–,0.924
CN(Cc1ccccc1)C1(CNC(=O)Cc2cnc3ncnn3c2)Cc2ccccc2C1,–,1.04
